This assay addresses human RON receptor (human, UniProt Q04912 25-1400). Put plainly: flow cytometry on HT29 cells. In general terms: A flow cytometer gives signals particle by particle.

The chains behind the UniProt entries cited, without tags or fusion partners. Residues count along the entry.
UniProt Q04912, residues 25-1400: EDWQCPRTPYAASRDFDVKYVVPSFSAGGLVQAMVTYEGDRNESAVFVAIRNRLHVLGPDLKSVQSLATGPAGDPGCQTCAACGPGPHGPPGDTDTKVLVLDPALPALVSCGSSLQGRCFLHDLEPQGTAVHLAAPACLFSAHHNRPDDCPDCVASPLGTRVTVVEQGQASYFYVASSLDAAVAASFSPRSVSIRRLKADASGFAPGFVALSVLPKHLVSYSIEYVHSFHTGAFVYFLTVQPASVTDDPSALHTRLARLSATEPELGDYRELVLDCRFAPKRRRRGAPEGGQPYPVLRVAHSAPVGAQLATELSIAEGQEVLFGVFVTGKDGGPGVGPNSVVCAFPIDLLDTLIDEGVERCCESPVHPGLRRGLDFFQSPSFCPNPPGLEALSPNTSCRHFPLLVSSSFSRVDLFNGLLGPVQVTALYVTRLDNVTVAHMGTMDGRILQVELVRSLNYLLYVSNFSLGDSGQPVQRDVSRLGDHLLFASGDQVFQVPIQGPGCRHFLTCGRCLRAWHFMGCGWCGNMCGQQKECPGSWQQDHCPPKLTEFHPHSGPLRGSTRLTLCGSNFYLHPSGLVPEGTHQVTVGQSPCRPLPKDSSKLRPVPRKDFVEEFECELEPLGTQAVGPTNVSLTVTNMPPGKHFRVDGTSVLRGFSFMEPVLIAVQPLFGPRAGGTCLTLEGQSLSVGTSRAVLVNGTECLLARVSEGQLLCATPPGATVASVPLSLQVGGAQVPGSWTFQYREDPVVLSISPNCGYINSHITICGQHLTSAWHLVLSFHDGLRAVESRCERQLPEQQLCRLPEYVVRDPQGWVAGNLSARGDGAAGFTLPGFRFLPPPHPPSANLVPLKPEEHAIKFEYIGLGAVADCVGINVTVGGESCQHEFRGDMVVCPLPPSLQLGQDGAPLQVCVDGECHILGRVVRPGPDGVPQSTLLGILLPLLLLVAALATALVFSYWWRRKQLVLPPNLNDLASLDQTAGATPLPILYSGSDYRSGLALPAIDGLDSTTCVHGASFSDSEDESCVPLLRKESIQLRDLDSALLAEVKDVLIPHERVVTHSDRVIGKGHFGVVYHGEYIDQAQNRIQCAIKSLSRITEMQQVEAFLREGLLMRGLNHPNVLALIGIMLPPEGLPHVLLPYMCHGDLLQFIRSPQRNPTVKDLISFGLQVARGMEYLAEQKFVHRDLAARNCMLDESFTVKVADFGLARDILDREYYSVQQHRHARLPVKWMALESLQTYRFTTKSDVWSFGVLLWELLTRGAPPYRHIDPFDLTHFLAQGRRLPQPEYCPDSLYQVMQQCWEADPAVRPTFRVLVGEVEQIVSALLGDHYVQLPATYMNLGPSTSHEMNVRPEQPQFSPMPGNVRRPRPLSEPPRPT

This note sets out measurements from US20190352422A1 (PCM TARGETECH, published 2019).

No constants are given. Whether binding was seen depends on the method and setting. Some results given as binding are weak or reduced against the parent protein; the word gives no strength.

B1: Humanized PCM5B14 H2L4 (IgG1/κ, designated as H5B14) (antibody, V domains shown)
VH: QVQLVQSGAEVKKPGATVKISCKVSGYTFTDYHMDWVQQAPGKGLEWMGDINPNNGGAIYNQKFKGRVTITADTSTDTAYMELSSLRSEDTAVYYCARSHYDYAGGAWFAYWGQGTLVTVSR
VL: EIVMTQSPGTLSLSPGERATLSCKSSQSLLFSGNQKNYLAWYQQKPGQAPRLLIYWASTRASGIPDRFSGSGSGTDFTLTISRLEPEDFAVYYCQQYYSFPRTFGQGTKLEIKR
notes: also called H5B14H2L4; Humanized 5B14
B1: the binding result was “binds”.
